The source of these data is article PMC10241914.

By UniProt entry, the sequences of proteins in these tests, tags left out. Residues count along the entry.
UniProt P08238: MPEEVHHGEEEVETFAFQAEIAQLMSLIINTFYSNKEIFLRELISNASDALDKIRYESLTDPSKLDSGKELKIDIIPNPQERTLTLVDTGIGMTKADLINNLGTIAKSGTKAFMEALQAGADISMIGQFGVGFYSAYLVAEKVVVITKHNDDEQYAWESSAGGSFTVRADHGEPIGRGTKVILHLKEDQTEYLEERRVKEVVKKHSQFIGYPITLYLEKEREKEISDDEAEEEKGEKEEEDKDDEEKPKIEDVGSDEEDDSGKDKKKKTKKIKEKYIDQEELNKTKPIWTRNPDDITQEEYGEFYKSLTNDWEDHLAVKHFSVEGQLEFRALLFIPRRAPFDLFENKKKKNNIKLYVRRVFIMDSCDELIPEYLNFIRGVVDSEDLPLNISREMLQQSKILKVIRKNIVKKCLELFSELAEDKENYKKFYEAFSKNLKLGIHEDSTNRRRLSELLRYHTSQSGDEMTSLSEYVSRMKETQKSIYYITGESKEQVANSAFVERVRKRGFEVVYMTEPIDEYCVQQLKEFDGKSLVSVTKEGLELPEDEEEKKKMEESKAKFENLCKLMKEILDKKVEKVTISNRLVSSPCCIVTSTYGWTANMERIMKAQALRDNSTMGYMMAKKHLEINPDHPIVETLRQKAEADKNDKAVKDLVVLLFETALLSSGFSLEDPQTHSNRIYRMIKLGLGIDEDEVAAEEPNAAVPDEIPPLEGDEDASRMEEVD
UniProt P11021, residues 19-654: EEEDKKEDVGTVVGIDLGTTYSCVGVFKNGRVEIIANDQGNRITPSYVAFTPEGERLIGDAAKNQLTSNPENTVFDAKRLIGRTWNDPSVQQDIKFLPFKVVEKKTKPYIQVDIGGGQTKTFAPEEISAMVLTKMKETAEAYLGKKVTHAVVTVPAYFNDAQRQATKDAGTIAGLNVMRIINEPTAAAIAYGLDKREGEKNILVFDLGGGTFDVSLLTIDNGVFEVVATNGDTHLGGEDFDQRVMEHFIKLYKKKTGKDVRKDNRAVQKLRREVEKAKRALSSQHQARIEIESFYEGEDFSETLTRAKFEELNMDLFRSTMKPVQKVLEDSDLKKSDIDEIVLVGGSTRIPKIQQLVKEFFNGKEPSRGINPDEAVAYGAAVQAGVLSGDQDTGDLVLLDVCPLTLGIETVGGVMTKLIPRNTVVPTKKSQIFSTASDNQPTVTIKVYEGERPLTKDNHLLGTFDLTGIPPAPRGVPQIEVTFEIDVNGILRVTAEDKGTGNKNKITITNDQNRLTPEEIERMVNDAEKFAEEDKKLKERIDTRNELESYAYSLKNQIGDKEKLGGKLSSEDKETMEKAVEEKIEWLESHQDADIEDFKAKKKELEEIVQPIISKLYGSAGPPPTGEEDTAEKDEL
UniProt P11142: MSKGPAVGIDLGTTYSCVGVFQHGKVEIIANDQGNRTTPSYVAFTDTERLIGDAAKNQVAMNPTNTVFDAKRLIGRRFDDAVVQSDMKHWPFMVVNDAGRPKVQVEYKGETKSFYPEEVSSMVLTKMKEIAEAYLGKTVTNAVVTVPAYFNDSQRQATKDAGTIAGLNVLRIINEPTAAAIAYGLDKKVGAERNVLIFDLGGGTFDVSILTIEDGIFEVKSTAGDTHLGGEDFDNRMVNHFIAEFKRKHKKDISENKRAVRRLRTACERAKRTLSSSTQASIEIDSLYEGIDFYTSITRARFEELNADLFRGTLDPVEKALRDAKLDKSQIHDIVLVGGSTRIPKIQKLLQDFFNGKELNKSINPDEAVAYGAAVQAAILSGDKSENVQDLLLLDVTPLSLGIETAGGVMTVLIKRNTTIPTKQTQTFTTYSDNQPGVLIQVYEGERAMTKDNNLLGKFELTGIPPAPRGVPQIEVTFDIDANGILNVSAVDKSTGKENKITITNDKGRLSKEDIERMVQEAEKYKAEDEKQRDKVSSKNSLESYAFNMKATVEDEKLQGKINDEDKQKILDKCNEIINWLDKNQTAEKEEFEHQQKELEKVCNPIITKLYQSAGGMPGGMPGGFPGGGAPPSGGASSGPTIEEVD
UniProt P38646, residues 47-679: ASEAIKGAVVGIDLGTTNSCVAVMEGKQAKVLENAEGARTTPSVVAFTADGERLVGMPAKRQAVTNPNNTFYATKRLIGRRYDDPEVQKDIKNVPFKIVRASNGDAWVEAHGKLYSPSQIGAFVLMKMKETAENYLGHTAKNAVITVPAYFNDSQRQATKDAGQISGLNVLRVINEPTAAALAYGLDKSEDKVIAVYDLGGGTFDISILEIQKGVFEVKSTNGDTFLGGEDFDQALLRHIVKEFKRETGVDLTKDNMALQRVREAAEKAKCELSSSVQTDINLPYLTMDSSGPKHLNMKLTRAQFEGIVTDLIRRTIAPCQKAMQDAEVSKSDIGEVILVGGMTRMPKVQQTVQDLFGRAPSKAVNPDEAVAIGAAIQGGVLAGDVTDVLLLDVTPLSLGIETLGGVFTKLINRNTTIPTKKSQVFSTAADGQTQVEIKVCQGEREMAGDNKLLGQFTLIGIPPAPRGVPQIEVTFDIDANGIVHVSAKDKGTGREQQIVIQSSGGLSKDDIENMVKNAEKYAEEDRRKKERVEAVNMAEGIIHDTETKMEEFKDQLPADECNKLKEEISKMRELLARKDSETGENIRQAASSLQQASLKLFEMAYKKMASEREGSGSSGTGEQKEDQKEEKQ

Results are given in words; binding and its absence hold for the method and conditions named. In cells and extracts the contact can be indirect. A yes stands for co-enrichment or nearness to the bait. Other partners may have been found.

The experiment has as its target T1, C11orf54 (bait of the Co-IP/MS assay) (human) (UniProt Q9H0W9).
T1 sequence: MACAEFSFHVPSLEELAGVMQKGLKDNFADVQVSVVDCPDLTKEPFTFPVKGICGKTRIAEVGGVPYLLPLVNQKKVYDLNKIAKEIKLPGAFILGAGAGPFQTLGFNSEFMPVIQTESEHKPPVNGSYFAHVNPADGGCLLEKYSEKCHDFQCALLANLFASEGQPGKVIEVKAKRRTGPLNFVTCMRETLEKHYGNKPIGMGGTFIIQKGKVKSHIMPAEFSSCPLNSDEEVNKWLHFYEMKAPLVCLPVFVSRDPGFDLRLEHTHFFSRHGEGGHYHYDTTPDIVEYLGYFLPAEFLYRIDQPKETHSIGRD
Nature of the experiment: affinity purification with mass spectrometry; co-immunoprecipitation/mass spectrometry (Co-IP/MS) of C11orf54; cells and antibody not told in the text shown.
As for HSP90AA1 (from UniProt P07900 1-732), the binding entry is “binds”. Turning to HSP90AB1 (from UniProt P08238 1-724), the binding result is recorded as “binds”.

Turning to HSPA5 (from UniProt P11021 19-654), the binding entry is reported as “binds”. As to HSPA8 (from UniProt P11142 1-646), the binding result was “binds”. HSPA9 (from UniProt P38646 47-679): the binding result is “binds”.
